The other results are listed elsewhere or left out.

Chains of the proteins cited; added tags and fusions are not shown. Lines headed by an entry give the natural chain unless they say otherwise; changes in a name come on top.
UniProt Q7RTV0, whole entry, looked up: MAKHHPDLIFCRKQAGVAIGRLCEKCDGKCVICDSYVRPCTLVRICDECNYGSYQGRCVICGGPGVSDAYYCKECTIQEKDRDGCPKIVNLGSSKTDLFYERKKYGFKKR
UniProt Q969N2: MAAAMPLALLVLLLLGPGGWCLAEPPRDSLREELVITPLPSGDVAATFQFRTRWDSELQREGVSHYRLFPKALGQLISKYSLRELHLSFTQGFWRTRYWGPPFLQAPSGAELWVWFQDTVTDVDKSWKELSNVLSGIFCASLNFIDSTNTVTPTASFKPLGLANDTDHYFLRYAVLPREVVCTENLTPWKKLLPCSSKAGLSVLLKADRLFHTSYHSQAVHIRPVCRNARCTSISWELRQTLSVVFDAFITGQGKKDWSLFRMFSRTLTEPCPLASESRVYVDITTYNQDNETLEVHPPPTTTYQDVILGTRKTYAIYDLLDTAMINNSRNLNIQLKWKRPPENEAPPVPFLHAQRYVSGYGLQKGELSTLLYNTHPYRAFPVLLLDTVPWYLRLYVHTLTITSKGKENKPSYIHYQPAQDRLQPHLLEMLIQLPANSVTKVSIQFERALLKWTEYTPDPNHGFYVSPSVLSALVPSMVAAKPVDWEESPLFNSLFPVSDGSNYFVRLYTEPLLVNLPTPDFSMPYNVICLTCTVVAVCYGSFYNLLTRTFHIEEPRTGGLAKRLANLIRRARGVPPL
UniProt Q9UG56: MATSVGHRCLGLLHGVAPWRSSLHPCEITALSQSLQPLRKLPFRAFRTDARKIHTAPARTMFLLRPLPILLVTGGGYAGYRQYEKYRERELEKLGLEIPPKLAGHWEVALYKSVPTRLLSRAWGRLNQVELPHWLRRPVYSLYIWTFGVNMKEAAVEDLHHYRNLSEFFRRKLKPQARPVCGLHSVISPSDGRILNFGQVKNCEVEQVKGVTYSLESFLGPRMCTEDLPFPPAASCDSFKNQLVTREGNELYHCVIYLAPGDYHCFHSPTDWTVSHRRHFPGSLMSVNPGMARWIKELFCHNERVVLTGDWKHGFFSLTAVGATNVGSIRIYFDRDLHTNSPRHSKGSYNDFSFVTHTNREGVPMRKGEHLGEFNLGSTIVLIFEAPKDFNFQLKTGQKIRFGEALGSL
UniProt P14618, whole entry, looked up: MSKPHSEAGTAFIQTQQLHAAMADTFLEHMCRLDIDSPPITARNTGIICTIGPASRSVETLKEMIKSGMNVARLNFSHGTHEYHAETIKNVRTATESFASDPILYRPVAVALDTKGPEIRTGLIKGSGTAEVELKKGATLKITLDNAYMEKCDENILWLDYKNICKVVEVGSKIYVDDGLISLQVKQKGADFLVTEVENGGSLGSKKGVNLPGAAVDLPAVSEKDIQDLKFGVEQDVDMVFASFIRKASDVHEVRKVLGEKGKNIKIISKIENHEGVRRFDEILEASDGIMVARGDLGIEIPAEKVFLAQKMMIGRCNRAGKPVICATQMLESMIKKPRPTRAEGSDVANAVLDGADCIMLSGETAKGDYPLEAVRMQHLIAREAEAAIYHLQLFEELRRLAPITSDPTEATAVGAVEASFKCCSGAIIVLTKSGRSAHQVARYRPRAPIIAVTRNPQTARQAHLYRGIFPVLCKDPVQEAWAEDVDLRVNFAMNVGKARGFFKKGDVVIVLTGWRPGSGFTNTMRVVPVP
UniProt O00628: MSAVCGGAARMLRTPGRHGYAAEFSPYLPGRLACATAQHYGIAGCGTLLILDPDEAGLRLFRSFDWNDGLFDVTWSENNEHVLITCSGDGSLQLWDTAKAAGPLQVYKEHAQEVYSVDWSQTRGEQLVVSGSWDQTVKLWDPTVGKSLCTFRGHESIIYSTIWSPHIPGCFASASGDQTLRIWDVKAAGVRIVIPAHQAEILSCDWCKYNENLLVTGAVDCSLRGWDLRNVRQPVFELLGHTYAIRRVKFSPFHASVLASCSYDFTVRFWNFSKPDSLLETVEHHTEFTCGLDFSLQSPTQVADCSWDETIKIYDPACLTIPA
UniProt P48426: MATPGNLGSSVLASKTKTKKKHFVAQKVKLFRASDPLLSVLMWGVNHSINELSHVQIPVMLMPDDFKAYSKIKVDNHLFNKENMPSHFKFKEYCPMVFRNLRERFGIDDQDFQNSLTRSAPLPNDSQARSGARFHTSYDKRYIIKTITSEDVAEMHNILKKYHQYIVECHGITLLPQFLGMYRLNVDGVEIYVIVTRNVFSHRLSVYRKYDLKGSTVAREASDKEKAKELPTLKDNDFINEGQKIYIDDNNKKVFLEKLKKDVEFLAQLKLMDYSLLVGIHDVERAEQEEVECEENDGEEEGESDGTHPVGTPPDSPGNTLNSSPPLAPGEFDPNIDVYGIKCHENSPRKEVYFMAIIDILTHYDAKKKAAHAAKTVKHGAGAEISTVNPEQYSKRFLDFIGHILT
UniProt P46020: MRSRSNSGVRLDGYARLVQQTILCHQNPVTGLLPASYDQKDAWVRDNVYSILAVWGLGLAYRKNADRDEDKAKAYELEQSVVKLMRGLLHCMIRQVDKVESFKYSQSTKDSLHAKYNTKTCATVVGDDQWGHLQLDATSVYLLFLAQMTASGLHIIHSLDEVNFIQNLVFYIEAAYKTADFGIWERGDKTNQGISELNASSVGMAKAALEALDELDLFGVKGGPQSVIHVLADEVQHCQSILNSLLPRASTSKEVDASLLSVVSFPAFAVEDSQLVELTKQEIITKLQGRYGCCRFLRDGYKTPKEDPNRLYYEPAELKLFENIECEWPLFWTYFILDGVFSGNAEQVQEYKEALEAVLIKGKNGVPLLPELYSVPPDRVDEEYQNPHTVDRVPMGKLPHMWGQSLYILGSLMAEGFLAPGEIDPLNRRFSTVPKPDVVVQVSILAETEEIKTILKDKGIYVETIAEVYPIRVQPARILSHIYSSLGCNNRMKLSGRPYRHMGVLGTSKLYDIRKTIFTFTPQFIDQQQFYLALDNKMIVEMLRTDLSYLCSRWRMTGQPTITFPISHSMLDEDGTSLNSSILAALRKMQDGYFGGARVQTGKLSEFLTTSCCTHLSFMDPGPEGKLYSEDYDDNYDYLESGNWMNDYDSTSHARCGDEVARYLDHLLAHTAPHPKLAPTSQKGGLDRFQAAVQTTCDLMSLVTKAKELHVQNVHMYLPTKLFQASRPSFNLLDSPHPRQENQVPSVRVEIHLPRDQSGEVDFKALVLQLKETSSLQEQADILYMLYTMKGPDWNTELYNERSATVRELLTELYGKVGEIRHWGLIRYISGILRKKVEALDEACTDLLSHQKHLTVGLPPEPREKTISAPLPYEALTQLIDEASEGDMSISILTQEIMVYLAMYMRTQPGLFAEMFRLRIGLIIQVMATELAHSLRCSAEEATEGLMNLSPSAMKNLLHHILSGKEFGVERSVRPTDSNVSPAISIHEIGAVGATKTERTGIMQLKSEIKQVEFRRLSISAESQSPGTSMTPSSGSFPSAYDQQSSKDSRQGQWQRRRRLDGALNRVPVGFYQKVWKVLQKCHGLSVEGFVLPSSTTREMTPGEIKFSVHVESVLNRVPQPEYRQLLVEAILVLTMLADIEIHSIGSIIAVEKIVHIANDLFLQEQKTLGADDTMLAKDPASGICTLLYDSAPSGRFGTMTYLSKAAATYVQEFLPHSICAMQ
UniProt Q8NHP8: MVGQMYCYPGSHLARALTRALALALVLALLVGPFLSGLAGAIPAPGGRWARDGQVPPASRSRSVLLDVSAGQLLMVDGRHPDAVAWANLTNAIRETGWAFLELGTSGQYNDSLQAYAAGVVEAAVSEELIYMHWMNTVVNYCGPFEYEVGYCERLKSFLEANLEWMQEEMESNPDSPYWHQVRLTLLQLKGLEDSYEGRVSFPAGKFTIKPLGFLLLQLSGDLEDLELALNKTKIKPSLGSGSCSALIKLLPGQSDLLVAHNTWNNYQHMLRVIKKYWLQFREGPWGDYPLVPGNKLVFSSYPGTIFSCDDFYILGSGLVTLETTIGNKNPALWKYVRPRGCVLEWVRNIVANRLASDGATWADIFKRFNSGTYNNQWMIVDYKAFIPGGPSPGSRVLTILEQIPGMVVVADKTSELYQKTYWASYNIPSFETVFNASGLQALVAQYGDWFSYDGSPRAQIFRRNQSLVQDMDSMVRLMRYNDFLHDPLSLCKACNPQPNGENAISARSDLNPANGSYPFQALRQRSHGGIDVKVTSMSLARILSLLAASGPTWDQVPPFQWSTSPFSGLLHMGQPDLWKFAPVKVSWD
UniProt O60925, whole entry, looked up: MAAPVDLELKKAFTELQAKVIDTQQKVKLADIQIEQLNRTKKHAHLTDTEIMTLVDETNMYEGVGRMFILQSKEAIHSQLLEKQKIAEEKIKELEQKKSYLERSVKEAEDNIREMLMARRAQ
UniProt P15735: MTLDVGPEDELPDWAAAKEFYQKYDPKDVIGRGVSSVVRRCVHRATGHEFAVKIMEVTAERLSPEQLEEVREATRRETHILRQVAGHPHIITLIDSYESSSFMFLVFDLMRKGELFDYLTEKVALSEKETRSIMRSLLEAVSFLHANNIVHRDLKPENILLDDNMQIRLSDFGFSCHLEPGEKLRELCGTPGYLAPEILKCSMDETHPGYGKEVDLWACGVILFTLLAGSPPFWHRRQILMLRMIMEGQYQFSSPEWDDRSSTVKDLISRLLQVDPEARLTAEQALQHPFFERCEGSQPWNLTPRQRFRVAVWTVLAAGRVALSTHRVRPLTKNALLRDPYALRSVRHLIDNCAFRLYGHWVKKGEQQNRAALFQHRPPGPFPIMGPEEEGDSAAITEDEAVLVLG
UniProt Q5JRX3: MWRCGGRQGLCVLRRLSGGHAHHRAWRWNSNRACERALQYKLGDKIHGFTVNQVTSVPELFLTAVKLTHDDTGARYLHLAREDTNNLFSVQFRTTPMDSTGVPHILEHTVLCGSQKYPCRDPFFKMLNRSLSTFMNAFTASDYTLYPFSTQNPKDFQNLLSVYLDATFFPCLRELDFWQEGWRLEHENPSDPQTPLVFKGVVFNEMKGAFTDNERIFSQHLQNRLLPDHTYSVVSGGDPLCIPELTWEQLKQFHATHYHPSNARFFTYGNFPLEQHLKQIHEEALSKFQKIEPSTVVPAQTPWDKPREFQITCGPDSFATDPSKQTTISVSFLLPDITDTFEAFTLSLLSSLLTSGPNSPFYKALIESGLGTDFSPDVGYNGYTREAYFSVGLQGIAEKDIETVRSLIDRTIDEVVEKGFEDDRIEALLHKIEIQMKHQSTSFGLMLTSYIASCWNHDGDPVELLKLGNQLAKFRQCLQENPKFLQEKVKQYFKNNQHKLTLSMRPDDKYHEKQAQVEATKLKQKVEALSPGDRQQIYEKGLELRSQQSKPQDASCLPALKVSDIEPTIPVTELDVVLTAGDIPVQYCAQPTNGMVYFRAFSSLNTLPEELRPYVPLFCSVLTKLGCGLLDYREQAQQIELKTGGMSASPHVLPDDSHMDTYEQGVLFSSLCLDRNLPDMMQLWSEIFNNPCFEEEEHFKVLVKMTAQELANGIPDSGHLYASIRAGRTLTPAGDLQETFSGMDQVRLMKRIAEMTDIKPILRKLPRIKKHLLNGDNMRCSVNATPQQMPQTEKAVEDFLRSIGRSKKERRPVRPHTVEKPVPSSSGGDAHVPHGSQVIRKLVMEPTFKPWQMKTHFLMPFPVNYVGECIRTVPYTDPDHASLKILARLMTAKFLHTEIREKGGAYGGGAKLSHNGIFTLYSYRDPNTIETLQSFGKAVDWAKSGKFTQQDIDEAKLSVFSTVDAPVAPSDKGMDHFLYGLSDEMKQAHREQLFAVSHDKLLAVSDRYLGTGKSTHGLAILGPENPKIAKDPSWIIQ
UniProt Q9H814, whole entry, looked up: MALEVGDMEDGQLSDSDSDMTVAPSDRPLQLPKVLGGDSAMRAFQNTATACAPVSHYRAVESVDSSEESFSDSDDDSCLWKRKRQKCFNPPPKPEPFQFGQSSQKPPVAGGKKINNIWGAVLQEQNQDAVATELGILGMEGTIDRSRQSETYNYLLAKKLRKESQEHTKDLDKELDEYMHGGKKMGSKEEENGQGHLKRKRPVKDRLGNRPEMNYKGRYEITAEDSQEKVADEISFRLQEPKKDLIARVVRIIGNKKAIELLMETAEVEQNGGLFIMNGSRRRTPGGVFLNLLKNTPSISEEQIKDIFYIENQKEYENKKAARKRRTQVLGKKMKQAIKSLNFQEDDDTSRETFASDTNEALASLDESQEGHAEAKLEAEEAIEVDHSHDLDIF
UniProt Q8IUZ5: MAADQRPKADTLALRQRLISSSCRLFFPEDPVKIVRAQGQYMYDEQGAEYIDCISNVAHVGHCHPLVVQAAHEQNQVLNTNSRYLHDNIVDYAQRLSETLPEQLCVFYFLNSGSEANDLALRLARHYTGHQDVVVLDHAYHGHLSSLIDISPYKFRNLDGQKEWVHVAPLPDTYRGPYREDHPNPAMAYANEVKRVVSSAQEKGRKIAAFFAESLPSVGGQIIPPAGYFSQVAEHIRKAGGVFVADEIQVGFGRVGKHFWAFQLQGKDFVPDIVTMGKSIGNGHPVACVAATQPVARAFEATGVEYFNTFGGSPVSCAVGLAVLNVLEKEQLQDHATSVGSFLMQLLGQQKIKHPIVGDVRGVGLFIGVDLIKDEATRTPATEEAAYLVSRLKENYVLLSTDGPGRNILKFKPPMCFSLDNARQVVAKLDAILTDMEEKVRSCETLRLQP

Compound in one assay: CNCc1ccc(-c2[nH]c3cc(F)cc4c3c2CCNC4=O)cc1 [rucaparib]
Briefly: log2 fold change, soluble protein after heating vs DMSO (PISA); higher = thermal stabilisation; K562 cells, 10 uM, 30 min; active = over 0.2 and 3.5 SD of the protein, either way, in both replicates (recomputed). Put shortly: (§1)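 Values are thermal stability changes relative to control samples and are taken from duplicates. They are stated as log2 fold changes. Before quantification by TMTpro 16plex LC-MS/MS with equalised channel sums, K562 cells at 2×10^6 cells/mL were treated with 10 μM compound for 30 min, heated in aliquots for 3 min across 48°C-58°C, pooled, extracted in PBS with 0.5% NP-40 at 4°C, and centrifuged at 21,000xg for 90 min to give the soluble supernatant.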
Take PLD3 (UniProt Q8IV08): the log2 fold change is inactive: -0.094.

Consider PHF5A (UniProt Q7RTV0), for which the log2 fold change was inactive: 0.04.

Regarding PLA2G15 (UniProt Q8NCC3), the log2 fold change was inactive: -0.064.

Take PIGT (UniProt Q969N2): the log2 fold change was inactive: -0.002.

As for PISD (UniProt Q9UG56), the log2 fold change is inactive: 0.06.

As to PIK3C3 (UniProt Q8NEB9), the log2 fold change is inactive: 0.25.

With PHF19 isoform 2 (UniProt Q5T6S3), the log2 fold change was inactive: 0.215.

In the case of PKM (UniProt P14618), the log2 fold change is inactive: -0.052.

Turning to PIP4K2C (UniProt Q8TBX8), the log2 fold change was inactive: 0.011.

Turning to PIK3R1 (UniProt P27986), the log2 fold change is inactive: 0.052.

As for PEX7 (UniProt O00628), the log2 fold change is inactive: -0.047.

For the target PIP4K2A (UniProt P48426), the log2 fold change was inactive: 0.013.

Turning to PHKA1 (UniProt P46020), the log2 fold change is inactive: -0.283.

On to PJA2 (UniProt O43164), for which the log2 fold change was inactive: 0.004.

Take PIKFYVE (UniProt Q9Y2I7): the log2 fold change is inactive: 0.068.

As to PI4K2B (UniProt Q8TCG2), the log2 fold change was inactive: 0.097.

On to PLCG1 isoform 2 (UniProt P19174), for which the log2 fold change was inactive: 0.088.

As to PGGT1B (UniProt P53609), the log2 fold change was inactive: -0.032.

As to PIR (UniProt O00625), the log2 fold change was inactive: 0.045.

For PHKA2 (UniProt P46019), the log2 fold change was inactive: -0.063.

On to PIP4K2B (UniProt P78356), for which the log2 fold change is inactive: -0.035.

Consider PLBD1 (UniProt Q6P4A8), for which the log2 fold change is inactive: 0.034.

As for PLBD2 (UniProt Q8NHP8), the log2 fold change is inactive: -0.115.

In the case of PFDN1 (UniProt O60925), the log2 fold change is inactive: -0.095.

On to PHKG2 (UniProt P15735), for which the log2 fold change was inactive: -0.032.

In the case of PIP4P1 isoform 2 (UniProt Q86T03), the log2 fold change is inactive: -0.026.

PGM3 isoform 4 (UniProt O95394): the log2 fold change was inactive: -0.013.

As for PGGHG (UniProt Q32M88), the log2 fold change was inactive: 0.02.

PIK3CB (UniProt P42338): the log2 fold change was inactive: 0.014.

Regarding PITRM1 isoform 2 (UniProt Q5JRX3), the log2 fold change was inactive: -0.051.

With PKN1 isoform 2 (UniProt Q16512), the log2 fold change was inactive: 0.022.

As to PIGG (UniProt Q5H8A4), the log2 fold change is inactive: -0.013.

Take PFAS (UniProt O15067): the log2 fold change was inactive: 0.

As to PHAX (UniProt Q9H814), the log2 fold change was inactive: -0.031.

As for PIGW (UniProt Q7Z7B1), the log2 fold change was inactive: 0.05.

Consider PLCB3 (UniProt Q01970), for which the log2 fold change is inactive: -0.015.

Take PIP4P2 (UniProt Q8N4L2): the log2 fold change was inactive: -0.003.

Compound in a further assay: CNc1nc(-c2ccc3c(N)n[nH]c3c2)cc(N2C[C@@H](C(=O)NC3CCCCC3)CC[C@H]2C)n1
The assay is described as above. Put shortly:
as §1
On to PLD3 (UniProt Q8IV08), for which the log2 fold change was inactive: -0.037.

In the case of PHF5A (UniProt Q7RTV0), the log2 fold change was inactive: -0.086.

Regarding PLA2G15 (UniProt Q8NCC3), the log2 fold change is inactive: -0.036.

On to PIGT (UniProt Q969N2), for which the log2 fold change is inactive: 0.013.

With PISD (UniProt Q9UG56), the log2 fold change was active: 0.252.

For the target PIK3C3 (UniProt Q8NEB9), the log2 fold change is inactive: 0.002.

With PHF19 isoform 2 (UniProt Q5T6S3), the log2 fold change is inactive: 0.02.

Take PKM (UniProt P14618): the log2 fold change is inactive: -0.007.

For the target PIP4K2C (UniProt Q8TBX8), the log2 fold change is inactive: -0.042.

PEX5 isoform 4 (UniProt P50542): the log2 fold change was inactive: 0.182.

PIK3R1 (UniProt P27986): the log2 fold change is inactive: 0.022.

PEX7 (UniProt O00628): the log2 fold change was inactive: 0.03.

As to PIP4K2A (UniProt P48426), the log2 fold change was inactive: -0.132.

As for PHKA1 (UniProt P46020), the log2 fold change was inactive: 0.027.

Take PJA2 (UniProt O43164): the log2 fold change is inactive: -0.053.

Take PIKFYVE (UniProt Q9Y2I7): the log2 fold change was inactive: -0.106.

Take PI4K2B (UniProt Q8TCG2): the log2 fold change is inactive: -0.096.

With PLCG1 isoform 2 (UniProt P19174), the log2 fold change was inactive: 0.054.

Turning to PGGT1B (UniProt P53609), the log2 fold change is inactive: -0.017.

Turning to PIR (UniProt O00625), the log2 fold change was inactive: 0.

On to PHYKPL (UniProt Q8IUZ5), for which the log2 fold change was inactive: 0.168.

Consider PHKA2 (UniProt P46019), for which the log2 fold change was inactive: -0.009.

With PIP4K2B (UniProt P78356), the log2 fold change is inactive: -0.083.

On to PLBD1 (UniProt Q6P4A8), for which the log2 fold change was inactive: 0.001.

With PIP5K1C isoform 3 (UniProt O60331), the log2 fold change is inactive: 0.236.

As to PLBD2 (UniProt Q8NHP8), the log2 fold change is inactive: -0.008.

For the target PFDN1 (UniProt O60925), the log2 fold change is inactive: 0.093.

Turning to PHKG2 (UniProt P15735), the log2 fold change was inactive: 0.1.

With PIP4P1 isoform 2 (UniProt Q86T03), the log2 fold change is inactive: -0.059.

PGM3 isoform 4 (UniProt O95394): the log2 fold change is inactive: 0.067.

Consider PGGHG (UniProt Q32M88), for which the log2 fold change is inactive: 0.017.

Regarding PIK3CB (UniProt P42338), the log2 fold change was inactive: 0.042.

For the target PITRM1 isoform 2 (UniProt Q5JRX3), the log2 fold change is inactive: 0.09.

PKN1 isoform 2 (UniProt Q16512): the log2 fold change is inactive: 0.026.

Turning to PIGG (UniProt Q5H8A4), the log2 fold change was active: 0.27.

PFAS (UniProt O15067): the log2 fold change is inactive: 0.251.

Regarding PHAX (UniProt Q9H814), the log2 fold change was inactive: -0.037.

Turning to PIGW (UniProt Q7Z7B1), the log2 fold change is inactive: -0.047.

With PLCB3 (UniProt Q01970), the log2 fold change was inactive: -0.045.

Take PIP4P2 (UniProt Q8N4L2): the log2 fold change is inactive: -0.106.

The values above are taken from the supplement of paper PMC10849652.
